The source of these data is publication doi:10.1101/2021.10.31.466654.

Chains of the proteins cited; added tags and fusions are not shown. Residues count along the entry.
UniProt P07237, residues 18-508: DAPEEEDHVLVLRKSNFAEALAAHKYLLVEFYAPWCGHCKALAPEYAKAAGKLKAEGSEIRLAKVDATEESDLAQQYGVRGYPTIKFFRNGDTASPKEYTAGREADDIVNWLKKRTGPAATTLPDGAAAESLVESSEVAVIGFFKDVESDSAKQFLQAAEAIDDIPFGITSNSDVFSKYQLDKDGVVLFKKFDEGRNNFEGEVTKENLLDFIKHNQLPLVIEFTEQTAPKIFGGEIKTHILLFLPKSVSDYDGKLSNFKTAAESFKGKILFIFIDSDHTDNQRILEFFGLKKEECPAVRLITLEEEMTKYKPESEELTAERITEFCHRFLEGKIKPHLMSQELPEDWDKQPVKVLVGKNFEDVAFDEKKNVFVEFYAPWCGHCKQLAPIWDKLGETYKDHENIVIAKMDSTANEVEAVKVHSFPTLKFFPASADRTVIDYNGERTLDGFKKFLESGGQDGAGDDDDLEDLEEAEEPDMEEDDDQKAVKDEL

No constants are given. Whether binding was seen depends on the method and setting. Binding seen in cells or lysates may run through a third protein. Here binding means that the protein was enriched with, or labelled near, the bait; the list need not be complete.

The target in this experiment is NKp46-Ig (extracellular domain of NKp46 fused to the Fc region of human IgG1) (human) (UniProt O76036). The experiment is described as follows: affinity purification with mass spectrometry.

Consider “calreticulin (CRT), endogenous in JEG-3 (from UniProt P27797 18-417)”, for which the binding entry is on record as “binds”.

For “protein disulfide isomerase PDIA1, endogenous in JEG-3 (from UniProt P07237 18-508)”, the binding entry is given as “binds”.
